Reference: the supplement of paper PMC8728848
This is one part of the list.

Key:
Experiment in all cases: glycan array binding signal (z-score within array); higher = stronger binding
Details in all cases: glycan notation: IUPAC condensed, linker removed
GalNAc(b1-4)GlcNAc = target: GalNAc(b1-4)GlcNAc
Outline: (§1)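 Glycan array data came from 3228 arrays in the Consortium for Functional Glycomics database, and only arrays with an available protein sequence were kept. Glycan names were put into IUPAC-condensed notation, and columns mapping to the same glycan were averaged. The binding signal is a within-array Z-score, averaged across arrays of one protein sequence run at different concentrations or buffers and across linkers. A negative Z-score can be read as non-binding.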

[1] = target: GalNAc(b1-4)GlcNAc(b1-2)Man
Outline: as §1

[2] = target: GalNAc(b1-4)GlcNAc(b1-2)Man(a1-3)[GalNAc(b1-4)GlcNAc(b1-2)Man(a1-6)]Man(b1-4)GlcNAc(b1-4)GlcNAc
Outline: as §1

[3] = target: GalNAc(b1-4)GlcNAc(b1-3)GalNAc(b1-4)GlcNAc
Outline: as §1

GalNAc(b1-4)GlcNAc6S = target: GalNAc(b1-4)GlcNAc6S
Outline: as §1

GalNAc(b1-6)GalNAc = target: GalNAc(b1-6)GalNAc
Outline: as §1

GalNAc3S(b1-4)GlcNAc = target: GalNAc3S(b1-4)GlcNAc
Outline: as §1

GalNAc3S(b1-4)GlcNAc3S = target: GalNAc3S(b1-4)GlcNAc3S
Outline: as §1

[4] = target: GalNAc3S(b1-4)[Fuc(a1-3)]GlcNAc
Outline: as §1

GalNAc4S6S(b1-4)GlcNAc = target: GalNAc4S6S(b1-4)GlcNAc
Outline: as §1

GalNAc6S(b1-4)GlcNAc = target: GalNAc6S(b1-4)GlcNAc
Outline: as §1

Glc(a1-4)Glc = target: Glc(a1-4)Glc
Outline: as §1

[5] = target: Glc(a1-4)Glc(a1-4)Glc(a1-4)Glc
Outline: as §1

Glc(a1-6)Glc(a1-6)Glc = target: Glc(a1-6)Glc(a1-6)Glc
Outline: as §1

[6] = target: Glc(a1-6)Glc(a1-6)Glc(a1-6)Glc
Outline: as §1

Glc(b1-4)Glc = target: Glc(b1-4)Glc
Outline: as §1

Glc(b1-6)Glc = target: Glc(b1-6)Glc
Outline: as §1

GlcA(b1-3)Gal = target: GlcA(b1-3)Gal
Outline: as §1

GlcA(b1-3)GlcNAc = target: GlcA(b1-3)GlcNAc
Outline: as §1

GlcA(b1-6)Gal = target: GlcA(b1-6)Gal
Outline: as §1

[7] = target: GlcA3S(b1-3)Gal(b1-4)GlcNAc(b1-2)Man
Outline: as §1

[8] = target: GlcA3S(b1-3)Gal(b1-4)GlcNAc(b1-3)Gal(b1-4)Glc
Outline: as §1

[9] = target: GlcNAc(a1-3)Gal(b1-4)GlcNAc
Outline: as §1

[10] = target: GlcNAc(a1-4)Gal(b1-3)GlcNAc
Outline: as §1

[11] = target: GlcNAc(a1-4)Gal(b1-4)GalNAc
Outline: as §1

[12] = target: GlcNAc(a1-4)Gal(b1-4)GlcNAc
Outline: as §1

[13] = target: GlcNAc(a1-4)Gal(b1-4)GlcNAc(b1-3)Gal(b1-4)Glc
Outline: as §1

[14] = target: GlcNAc(a1-4)Gal(b1-4)GlcNAc(b1-3)Gal(b1-4)GlcNAc
Outline: as §1

[15] = target: GlcNAc(a1-4)Gal(b1-4)GlcNAc(b1-3)Gal(b1-4)GlcNAc(b1-3)Gal(b1-4)GlcNAc
Outline: as §1

[16] = target: GlcNAc(a1-4)Gal(b1-4)GlcNAc(b1-3)Gal(b1-4)[Fuc(a1-3)]GlcNAc(b1-3)Gal(b1-4)[Fuc(a1-3)]GlcNAc
Outline: as §1

[17] = target: GlcNAc(a1-6)Gal(b1-4)GlcNAc
Outline: as §1

[18] = target: GlcNAc(b1-2)Gal(b1-3)GalNAc
Outline: as §1

[19] = target: GlcNAc(b1-2)Man(a1-3)[GlcNAc(b1-2)Man(a1-6)]Man(b1-4)GlcNAc(b1-4)GlcNAc
Outline: as §1

[20] = target: GlcNAc(b1-2)Man(a1-3)[GlcNAc(b1-2)Man(a1-6)]Man(b1-4)GlcNAc(b1-4)[Fuc(a1-6)]GlcNAc
Outline: as §1

[21] = target: GlcNAc(b1-2)Man(a1-3)[GlcNAc(b1-4)][GlcNAc(b1-2)Man(a1-6)]Man(b1-4)GlcNAc(b1-4)GlcNAc
Outline: as §1

[22] = target: GlcNAc(b1-2)Man(a1-3)[GlcNAc(b1-4)][GlcNAc(b1-2)Man(a1-6)]Man(b1-4)GlcNAc(b1-4)[Fuc(a1-6)]GlcNAc
Outline: as §1

[23] = target: GlcNAc(b1-2)[GlcNAc(b1-4)]Man(a1-3)[GlcNAc(b1-2)Man(a1-6)]Man(b1-4)GlcNAc(b1-4)GlcNAc
Outline: as §1

[24] = target: GlcNAc(b1-2)[GlcNAc(b1-4)]Man(a1-3)[GlcNAc(b1-4)][GlcNAc(b1-2)Man(a1-6)]Man(b1-4)GlcNAc(b1-4)GlcNAc
Outline: as §1

[25] = target: GlcNAc(b1-2)[GlcNAc(b1-4)]Man(a1-3)[GlcNAc(b1-4)][GlcNAc(b1-2)[GlcNAc(b1-6)]Man(a1-6)]Man(b1-4)GlcNAc(b1-4)GlcNAc
Outline: as §1

[26] = target: GlcNAc(b1-2)[GlcNAc(b1-4)]Man(a1-3)[GlcNAc(b1-4)][GlcNAc(b1-2)[GlcNAc(b1-6)]Man(a1-6)]Man(b1-4)GlcNAc(b1-4)[Fuc(a1-6)]GlcNAc
Outline: as §1

[27] = target: GlcNAc(b1-2)[GlcNAc(b1-6)]Man(a1-6)[GlcNAc(b1-2)Man(a1-3)]Man(b1-4)GlcNAc(b1-4)GlcNAc
Outline: as §1

[28] = target: GlcNAc(b1-2)[GlcNAc(b1-6)]Man(a1-6)[GlcNAc(b1-2)Man(a1-3)]Man(b1-4)GlcNAc(b1-4)[Fuc(a1-6)]GlcNAc
Outline: as §1

[29] = target: GlcNAc(b1-2)[GlcNAc(b1-6)]Man(a1-6)[GlcNAc(b1-4)][GlcNAc(b1-2)Man(a1-3)]Man(b1-4)GlcNAc(b1-4)GlcNAc
Outline: as §1

GlcNAc(b1-3)Fuc = target: GlcNAc(b1-3)Fuc
Outline: as §1

GlcNAc(b1-3)Gal = target: GlcNAc(b1-3)Gal
Outline: as §1

B1: EfCBM33A (Enterococcus faecalis), Q838S1 (protein)
chain: MKKSLLTIVLAFSFVLGGAALAPTVSEAHGYVASPGSRAFFGSSAGGNLNTNVGRAQWEPQSIEAPKNTFITGKLASAGVSGFEPLDEQTATRWHKTNITTGPLDITWNLTAQHRTASWDYYITKNGWNPNQPLDIKNFDKIASIDGKQEVPNKVVKQTINIPTDRKGYHVIYAVWGIGDTVNAFYQAIDVNIQ
B1 was tested, and the “glycan array binding signal (z-score)” value (GalNAc(b1-4)GlcNAc) was 1.05, the “glycan array binding signal (z-score)” value [1] was -0.337 and the “glycan array binding signal (z-score)” value [2] was 3.54. For the same binder, the “glycan array binding signal (z-score)” value [3] was 0.685, the “glycan array binding signal (z-score)” value (GalNAc(b1-4)GlcNAc6S) was -0.288 and the “glycan array binding signal (z-score)” value (GalNAc(b1-6)GalNAc) was -1.4. For the same binder, the “glycan array binding signal (z-score)” value (GalNAc3S(b1-4)GlcNAc) was -0.598, the “glycan array binding signal (z-score)” value (GalNAc3S(b1-4)GlcNAc3S) was 0.074 and the “glycan array binding signal (z-score)” value [4] was -0.046. For the same binder, the “glycan array binding signal (z-score)” value (GalNAc4S6S(b1-4)GlcNAc) was -0.781, the “glycan array binding signal (z-score)” value (GalNAc6S(b1-4)GlcNAc) was 1.04 and the “glycan array binding signal (z-score)” value (Glc(a1-4)Glc) was 0.612. The “glycan array binding signal (z-score)” value [5] was 0.247, the “glycan array binding signal (z-score)” value (Glc(a1-6)Glc(a1-6)Glc) was 0.821 and the “glycan array binding signal (z-score)” value [6] was 0.158. For the same binder, the “glycan array binding signal (z-score)” value (Glc(b1-4)Glc) was 0.442, the “glycan array binding signal (z-score)” value (Glc(b1-6)Glc) was -0.404 and the “glycan array binding signal (z-score)” value (GlcA(b1-3)Gal) was -0.26. For the same binder, the “glycan array binding signal (z-score)” value (GlcA(b1-3)GlcNAc) was -0.694, the “glycan array binding signal (z-score)” value (GlcA(b1-6)Gal) was 0.419 and the “glycan array binding signal (z-score)” value [7] was 1.24. The “glycan array binding signal (z-score)” value [8] was -0.507, the “glycan array binding signal (z-score)” value [9] was -0.699 and the “glycan array binding signal (z-score)” value [10] was -0.301. The “glycan array binding signal (z-score)” value [11] was -1.44, the “glycan array binding signal (z-score)” value [12] was 0.391 and the “glycan array binding signal (z-score)” value [13] was -0.81. For the same binder, the “glycan array binding signal (z-score)” value [14] was -0.409, the “glycan array binding signal (z-score)” value [15] was -0.298 and the “glycan array binding signal (z-score)” value [16] was -0.134. For the same binder, the “glycan array binding signal (z-score)” value [17] was 0.346, the “glycan array binding signal (z-score)” value [18] was -0.504 and the “glycan array binding signal (z-score)” value [19] was -0.209. For the same binder, the “glycan array binding signal (z-score)” value [20] was -0.746, the “glycan array binding signal (z-score)” value [21] was -0.009 and the “glycan array binding signal (z-score)” value [22] was -0.554. For the same binder, the “glycan array binding signal (z-score)” value [23] was 0.123, the “glycan array binding signal (z-score)” value [24] was 0.065 and the “glycan array binding signal (z-score)” value [25] was -0.059. The “glycan array binding signal (z-score)” value [26] was -0.154, the “glycan array binding signal (z-score)” value [27] was -0.321 and the “glycan array binding signal (z-score)” value [28] was 0.471. For the same binder, the “glycan array binding signal (z-score)” value [29] was -0.977, the “glycan array binding signal (z-score)” value (GlcNAc(b1-3)Fuc) was 0.31 and the “glycan array binding signal (z-score)” value (GlcNAc(b1-3)Gal) was 0.149.
